PubChem BioAssay AID493246 | Drosophila RNAi Screening Center – 2011

Screen: 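Genome-wide search for dsRNAs that reduce cell number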 (primary screen)
Cells: Drosophila Kc and S2R+ cells
Knock-down reagent: long dsRNA against Drosophila genes
Detection: 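Raw, unnormalised count of remaining cells in each well; per-plate z-scores of cell number underlie the calls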
Direction: Kc cell number and S2R+ cell number: higher = more cells remaining
Call rule: 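Counted as a hit if cell number falls by a z-score of at least 3 within its plate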
The screen tested about 21,000 reagents; below is an unselected part of those with a known target gene and a result. Of all reagents, 429 (2%) got an active call. 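Values are raw and not normalised between plates; calls rest on per-plate z-scores that were not deposited.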 Unmarked entries are inactive. The record does not give: the amount of reagent, the time to read-out.

Gene | dsRNA | Kc cell number, rep 1 | Kc cell number, rep 2 | S2R+ cell number, rep 1 | S2R+ cell number, rep 2
CG3961 (GeneID 40056) | DRSC10390 | 1.57e6 | 1.64e6 | 1.21e6 | 1.23e6
CG3961 (GeneID 40056) | DRSC10391 | 1.71e6 | 2.05e6 | 1.45e6 | 1.52e6
Nrk (GeneID 36445) | DRSC07480 | 1.57e6 | 1.55e6 | 1.18e6 | 1.32e6
Zif (GeneID 40795) | DRSC12514 | 1.58e6 | 1.60e6 | 1.42e6 | 1.44e6
CG34310 (GeneID 5740536) | DRSC00943 | 1.70e6 | 1.91e6 | 1.19e6 | 1.32e6
CG14309 (GeneID 42212) | DRSC14788 | 1.22e6 | 1.28e6 | 1.07e6 | 1.12e6
Tsp2A (GeneID 31080) | DRSC18584 | 1.41e6 | 1.44e6 | 1.02e6 | 1.14e6
TER94 (GeneID 36040) | DRSC07560 | 1.03e6 | 1.18e6 | 9.96e5 | 1.06e6
sand (GeneID 35777) | DRSC07245 | 1.56e6 | 1.55e6 | 1.30e6 | 1.39e6
scf (GeneID 38145) | DRSC08735 | 1.10e6 | 1.31e6 | 1.00e6 | 1.26e6
CG15865 (GeneID 32641) | DRSC19733 | 1.46e6 | 1.46e6 | 1.04e6 | 1.12e6
Arpc3B (GeneID 32696) | DRSC20126 | 1.44e6 | 1.48e6 | 9.63e5 | 1.06e6
CG44325 (GeneID 31831) | DRSC18423 | 1.63e6 | 1.65e6 | 1.17e6 | 1.14e6
Tnpo-SR (GeneID 33465) | DRSC00546 | 1.30e6 | 1.40e6 | 5.52e5 | 6.51e5

Only “Kc cell number, rep 2” (4 entries from above):
CG3961 (GeneID 40056) [DRSC10390]	1.64e6
CG3961 (GeneID 40056) [DRSC10391]	2.05e6
Nrk (GeneID 36445) [DRSC07480]	1.55e6
Zif (GeneID 40795) [DRSC12514]	1.60e6

The list goes on.
Gene | dsRNA | Kc cell number, rep 1 | Kc cell number, rep 2 | S2R+ cell number, rep 1 | S2R+ cell number, rep 2
tej (GeneID 36590) | DRSC07219 | 1.52e6 | 1.44e6 | 1.15e6 | 1.32e6
CG14441 (GeneID 31611) | DRSC17934 | 1.36e6 | 1.41e6 | 6.81e5 | 7.68e5
yki (GeneID 37851) | DRSC04437 | 1.28e6 | 1.33e6 | 1.08e6 | 1.15e6
CG6337 (GeneID 36530) | DRSC06977 | 1.56e6 | 1.62e6 | 1.33e6 | 1.45e6
Jon65Aii (GeneID 38684) | DRSC10665 | 1.48e6 | 1.45e6 | 1.12e6 | 1.26e6
CG18746 (GeneID 59142) | DRSC15383 | 1.65e6 | 1.93e6 | 1.27e6 | 1.39e6
srw (GeneID 38525) | DRSC08201 | 1.54e6 | 1.38e6 | 1.11e6 | 1.50e6
CG10764 (GeneID 36962) | DRSC06000 | 1.43e6 | 1.47e6 | 1.08e6 | 1.18e6
Eip74EF (GeneID 39962) | DRSC10613 | 2.94e5 (active) | 4.30e5 | 4.28e5 | 5.08e5
Eip74EF (GeneID 39962) | DRSC11160 | 1.40e6 | 1.45e6 | 1.08e6 | 1.16e6
